Measured values: PubChem BioAssay AID540276 (National Center for Advancing Translational Sciences (NCATS), 2011)
Hit rate of the full screen: of about 300,000 compounds, about 5,400 (1.8%) were called active. The inconclusive results got no clear call from the source; some entries with a clear call stand among them for comparison. The call rests on the fitted dose curve; tested in HEK293 cells. Potencies beside an inconclusive call are fits to weak or partial responses and may not hold up.
On the % scale 0 is the no-effect control and ±100 the full control effect; potency means the concentration at half of the fitted maximal effect.

Experiment: qHTS for inhibitors of binding or entry into cells for Marburg Virus
Details: Marburg virus pseudotyped entry inhibition, cell reporter; activity change, negative = inhibition: at 37.8 µM (top of the series) unless noted
In the case of `COC(=O)c1sc(NC(=O)c2ccncc2)nc1C`, the Potency was inconclusive: 0.126 µM [inhibitor, full curve, poor fit].
In the case of `O=S(=O)(NCc1ccco1)c1ccc2c(c1)Cc1ccccc1-2`, the “activity change, negative = inhibition” value was inactive: 2.88%.
For `CC(C)(C)C(=O)Nc1ccccc1C(=O)Nc1cccnc1`, the “activity change, negative = inhibition” value was inactive: 3.31%.
In the case of `CCC1CCCCN1C(=O)COc1ccc(F)cc1` (centres undefined), the Potency was inconclusive: 25.1 µM [inhibitor, single point].
With `Cc1nc2ccccc2nc1SCC(=O)c1ccccc1` the Potency was inconclusive: 28.2 µM [inhibitor, partial curve, poor fit].
For `COC(=O)C1=C2CCO[C@H]2[C@@H]2[C@@H](C)[C@H](OC)c3ccccc3[C@@H]12`, the Potency was inconclusive: 5.96 µM [inhibitor, single point].
In the case of `Oc1ccc(/C=C/c2nc(-c3ccccc3O)n(-c3ccccc3)n2)cc1`, the Potency was inconclusive: 29.1 µM [inhibitor, single point].
For `COc1ccc(Cn2c(NCC(C)C)nc3c2c(=O)n(C)c(=O)n3C)cc1`, the “activity change, negative = inhibition” value was inactive: 8.2% [at 46.1 µM].
In the case of `Nc1ncnc2c1ncn2[C@@H]1O[C@H](COP(=O)(O)CP(=O)(O)OP(=O)(O)O)[C@H](O)[C@H]1O`, the “activity change, negative = inhibition” value was inactive: 4.69%.
With `CN(CC(=O)Nc1ccccc1Sc1ccccc1)Cc1nc2ccccc2c(=O)[nH]1` the Potency was inconclusive: 11.2 µM [inhibitor, partial curve, poor fit].
For `O=C(/C=C/NNC(=O)c1ccccc1)c1ccccc1`, the “activity change, negative = inhibition” value was inactive: 1.84%.
For `O=[N+]([O-])c1ccc(NC(=S)NCc2ccncc2)cc1`, the Potency was inconclusive: 35.5 µM [inhibitor, single point].
For `CCOC(=O)c1[nH]c2ccc(F)cc2c1NC(=O)C(C)N1CCc2cc(OC)c(OC)cc2C1` (centres undefined), the Potency was inconclusive: 16.4 µM [inhibitor, single point].
For `O=S(=O)(Nc1nc2ccccc2nc1N1CCc2ccccc2C1)c1ccc(Br)cc1`, the Potency was inconclusive: 1.16 µM [activator, single point].
With `COC(=O)c1ccc(Oc2nc(SC)nc(N(C)C)n2)cc1` the Potency was inconclusive: 5.01 µM [inhibitor, single point].
In the case of `COC(=O)c1cccc(Nc2ncnc3ccc(C)cc23)c1`, the Potency was inconclusive: 29.1 µM [inhibitor, single point].
In the case of `CN(C(=O)CSc1nc2ccc(NC(=O)c3ccccc3)cc2s1)c1ccccc1`, the Potency was inconclusive: 3.98 µM [inhibitor, partial curve, poor fit].
In the case of `COc1ccccc1N1CCN(C(=O)c2cc3sccc3n2C)CC1`, the Potency was inconclusive: 12.6 µM [inhibitor, partial curve, poor fit].
For `CCC(CC)c1nnc(NC(=O)CC(C)c2ccccc2)s1` (centres undefined), the Potency was inconclusive: 8.91 µM [inhibitor, partial curve, poor fit].
